Experimental data from PubChem BioAssay AID504834 (National Center for Advancing Translational Sciences (NCATS), 2011).
Screen size: about 320,000 compounds; about 22,000 (6.9%) were called active. Inconclusive results, whose numbers are uncertain, are shown with a selection of clear calls. Calls follow the shape of the dose curve; as a rule, active = well fitted inhibition curve with a large enough effect; inconclusive = small, poorly fitted or top-dose-only effect, or another doubt; inactive = no such curve, though single readings can be large or run the other way. Where the call is inconclusive, the potency comes from a doubtful curve fit.
% is scaled to controls: 0 for no effect and ±100 for the full control effect; potency is read from the fitted curve at half-maximal effect.

Test: Primary qHTS for delayed death inhibitors of the malarial parasite plastid, 96 hour incubation
Settings: P. falciparum luciferase reporter growth; series mostly up to 28.7 µM; activity change, negative = inhibition: at the top concentration
In short: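 Cell-based qHTS: luciferase-tagged P. falciparum in erythrocytes (2% hematocrit, 0.05% parasitemia final) incubated with compounds for 96 hours, 37 C, 5% CO2; luciferase detection reagent then added and luminescence measured.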
For `CCOC(=O)C1=C(O)/C(=C\c2cc(C)n(-c3ccccc3F)c2C)N=C1C`, the Potency was inconclusive: 2.33 µM [inhibitor, full curve].
With `CC(C)(C)OC(=O)CC12CCCCC1NC(=O)O2` (centres undefined) the “activity change, negative = inhibition” value was inactive: -11.6%.
With `Cc1ccc2nc(SCC(=O)Nc3cccc(S(=O)(=O)NC4=NCCCCC4)c3)[nH]c2c1` the Potency was inconclusive: 18.5 µM [inhibitor, partial curve, poor fit].
In the case of `COCCNc1nc2c(-c3cccc(C(F)(F)F)c3)nnn2c2ccccc12`, the Potency is reported as inconclusive: 10.4 µM [inhibitor, single point].
In the case of `O=CNc1ccc(OC(=O)c2cncc(Br)c2)cc1`, the “activity change, negative = inhibition” value is reported as inactive: 61%.
In the case of `O=C(C1CCC1)N1CCc2cc(S(=O)(=O)N3CCCCC3)ccc21`, the Potency is reported as inconclusive: 0.522 µM [inhibitor, full curve, poor fit].
In the case of `Cc1c(C#N)c2ccccc2n1CC(=O)N1CCc2ccccc2C1`, the Potency is reported as inconclusive: 4.65 µM [inhibitor, partial curve, poor fit].
In the case of `CCc1nnc(NC(=O)c2cc(S(=O)(=O)N3CCOCC3)ccc2N2CCCCC2)s1`, the “activity change, negative = inhibition” value is reported as inactive: -18.8%.
With `CCN(CC)S(=O)(=O)c1ccc(N(C)CCc2ccc(OC)c(OC)c2)nc1` the Potency was inconclusive: 10.4 µM [inhibitor, single point].
In the case of `CC(C)CCNC(=O)C(c1ccncc1)N(CC1CCCO1)C(=O)Cn1nnc(-c2ccc(F)cc2)n1` (centres undefined), the “activity change, negative = inhibition” value is reported as inactive: -9.64%.
With `CC(=O)N1CC(C)c2scc(C)[n+]2-c2ccccc21` (centres undefined) the Potency was inconclusive: 18.5 µM [inhibitor, single point].
With `COc1ccc2nc(SCC(=O)Nc3ccc4c(c3)OCCO4)[nH]c2c1` the Potency was inconclusive: 6.57 µM [inhibitor, partial curve, poor fit].
With `Cc1ccc(C2(c3noc(CN(C)Cc4ccccn4)n3)CCCC2)cc1` the Potency was inconclusive: 18.5 µM [inhibitor, single point].
In the case of `CN(Cc1cn(C)nc1-c1ccc(Oc2ccccc2)cc1)Cc1cnc2ccccn12`, the Potency is reported as inconclusive: 18.5 µM [inhibitor, single point].
With `COc1ccc2cc3cc(C(=O)NCCCN4CCOCC4)oc3nc2c1` the Potency was active: 1.17 µM.
With `CC/C(=N\NC(=O)c1c(C)nc2ccccn12)c1ccc(Cl)cc1` the “activity change, negative = inhibition” value was inactive: -7.35%.
For `Cc1ccc(N(CCC#N)C(=O)COC(=O)C2CCN(S(=O)(=O)c3ccc(C)c(C)c3)CC2)cc1`, the “activity change, negative = inhibition” value was inactive: 6.15%.
In the case of `COc1ccc(NS(=O)(=O)c2cccc(C(=O)N3CCN(c4ccccc4O)CC3)c2)cc1`, the Potency is reported as inconclusive: 11.7 µM [inhibitor, single point].
For `COc1ccc(/C=N/Nc2nc(-c3ccc(C)cc3)c(NC(C)=O)s2)cc1`, the Potency was active: 4.65 µM.
For `CCN(CC)S(=O)(=O)c1ccc(C(=O)Nc2ccc(Cc3ccncc3)cc2)cc1`, the “activity change, negative = inhibition” value was inactive: 3.94%.
In the case of `O=C(CCCN1C(=O)c2cccc3cccc(c23)C1=O)N1CCN(c2ccc(F)cc2)CC1`, the “activity change, negative = inhibition” value is reported as inactive: -15.7%.
With `O=C(c1ccccc1)N1CCN2C(=O)c3ccccc3C12c1ccc(Cl)cc1` (centres undefined) the Potency was inconclusive: 11.7 µM [inhibitor, partial curve, poor fit].
In the case of `COc1ccc(C)cc1NC(=O)C1CCN(S(=O)(=O)c2ccccc2)CC1`, the Potency is reported as inconclusive: 18.5 µM [inhibitor, partial curve, poor fit].
For `CCc1ccccc1NC(=O)/C(=C/c1ccccc1)c1ccccc1`, the Potency was active: 8.28 µM.
For `CCC(C(=O)NC1CCCCC1)n1c2ccccc2c2nc(=O)cc(C)n21` (centres undefined), the Potency was inconclusive: 6.57 µM [inhibitor, partial curve, poor fit].
For `Cc1ccc(Cn2c(=N)c(S(=O)(=O)c3ccc(C)cc3)cc3c(=O)n4ccccc4nc32)cc1`, the Potency was inconclusive: 6.57 µM [inhibitor, partial curve].
For `CC1CCC2C(=O)N(c3cccc(OS(=O)(=O)c4ccccc4)c3)C(=O)C2C1` (centres undefined), the “activity change, negative = inhibition” value was inactive: 191%.
In the case of `O=C(NCCCN1CCCC1=O)c1cccc(NS(=O)(=O)c2ccccc2)c1`, the Potency is reported as inconclusive: 3.7 µM [inhibitor, single point].
With `CN(Cc1ccccc1)C(=O)c1ccc(NC(=O)Cc2cccc(NC(=O)C3CCCN(C(=O)CCc4ccccc4)C3)c2)cc1` (centres undefined) the Potency was active: 1.47 µM.
In the case of `Cc1ccc(N2CC(C(=O)Nc3cccc(F)c3)CC2=O)cc1` (centres undefined), the Potency is reported as active: 2.33 µM.
In the case of `OCCNCC12CC3CC(CC(C3)C1)C2`, the Potency is reported as inconclusive: 11.7 µM [inhibitor, partial curve, poor fit].
In the case of `CCCCC1(C)OC(=O)C(=Cc2ccc(-c3ccc(Cl)c(C(=O)O)c3)o2)C(=O)O1` (centres undefined), the Potency is reported as inconclusive: 0.586 µM [inhibitor, partial curve, poor fit].
For `O=[N+]([O-])c1cc(Cl)c2cccnc2c1O`, the “activity change, negative = inhibition” value was inactive: -26.8%.
In the case of `CCCC(=O)Nc1c2c(nn1-c1cccc(C)c1C)CS(=O)(=O)C2`, the Potency is reported as inconclusive: 2.33 µM [inhibitor, full curve, poor fit].
With `Cc1nn(-c2ccccc2)c(C)c1/C=C/C(=O)OCC(=O)NC1CCS(=O)(=O)C1` (centres undefined) the “activity change, negative = inhibition” value was inactive: -2.57%.
In the case of `O=C(CS(=O)CC(=O)N(CC(=O)NC1CCCC1)C1CCCCC1)Nc1ccc(F)cc1` (centres undefined), the Potency is reported as inconclusive: 4.65 µM [inhibitor, partial curve, poor fit].
For `CSCc1c(C(=O)OCC(=O)c2ccc[nH]2)oc2ccccc12`, the “activity change, negative = inhibition” value was inactive: 0.836%.
For `O=C(C1CCN(S(=O)(=O)c2ccc(-n3cnnn3)cc2)CC1)N1CCCCC1`, the “activity change, negative = inhibition” value was inactive: -28.1%.
In the case of `Clc1ccc(-c2ccn[nH]2)cc1`, the Potency is reported as inconclusive: 0.828 µM [inhibitor, full curve, poor fit].
With `CN(CC(=O)O/N=C(\N)c1ccccn1)S(=O)(=O)c1cc(Cl)ccc1Cl` the Potency was inconclusive: 18.5 µM [inhibitor, single point].
For `COc1ccc2c(c1)c(C(O)CN1CCN(Cc3ccc4c(c3)OCO4)CC1)c(C)n2C` (centres undefined), the Potency was inconclusive: 2.62 µM [inhibitor, partial curve, poor fit].
With `CCc1noc(C)c1C(=O)N(C)CC(=O)Nc1ccc(Br)cc1C` the Potency was inconclusive: 10.4 µM [inhibitor, partial curve, poor fit].
For `CC(C)(C)C(=O)c1sc2nc(-c3cccs3)cc(C(F)(F)F)c2c1N`, the “activity change, negative = inhibition” value was inactive: 19%.
With `O=C(/C=C/c1cccc(F)c1)NCCCn1ccnc1` the “activity change, negative = inhibition” value was inactive: 21.4%.
In the case of `CCOC(=O)C1CCCN(C(=O)C2CCN(S(=O)(=O)c3c(C)noc3/C=C/c3ccccc3F)CC2)C1` (centres undefined), the “activity change, negative = inhibition” value is reported as inactive: 4.77%.
For `O=C(Nc1ccc(Br)cc1Br)c1cccc2c1C(=O)N(C1CCCCC1)C2`, the Potency was inconclusive: 1.47 µM [inhibitor, full curve, poor fit].
For `CCC(=O)N1CCN=C1SCc1cccc(F)c1`, the Potency was inconclusive: 18.5 µM [inhibitor, single point].
For `CCOC(=O)C1CCN(C(=O)C(=O)c2cn(CC(=O)N3CCCCCC3)c3ccccc23)CC1`, the Potency was active: 10.4 µM.
In the case of `CCOC(=O)c1ccc(S(=O)(=O)N2CCN(C(=O)c3nn(C)c(=O)c4ccccc34)CC2)cc1`, the Potency is reported as inconclusive: 13.1 µM [inhibitor, single point].
In the case of `O=C(C[n+]1cnn(CC(=O)c2ccc(Cl)cc2Cl)c1)c1ccc([N+](=O)[O-])cc1`, the Potency is reported as inconclusive: 2.33 µM [inhibitor, full curve, poor fit].
In the case of `CCc1cccc2c(C(=O)CSc3nncn3-c3ccc(OC)cc3)c[nH]c12`, the Potency is reported as inconclusive: 10.4 µM [inhibitor, single point].
In the case of `CC(=O)OCC1O[C@@H](O[C@@H]2C[C@H]3C(C)(C)[C@H](OC(C)=O)CC[C@]3(C)[C@H]3CC[C@]45C[C@]4(CC[C@H]5[C@@H](C)C[C@@H](O)[C@H](O)C(C)(C)O)[C@@]32C)[C@H](O)[C@@H](O)[C@@H]1O` (some centres undefined), the Potency is reported as active: 5.86 µM.
With `CCOc1ccc(NC(=O)c2ccc(CN3CCc4ccccc4C3)cc2)cc1` the Potency was active: 5.22 µM.
With `O=C(CCNS(=O)(=O)c1ccc2[nH]c(=O)oc2c1)Nc1cccc(Br)c1` the Potency was inconclusive: 7.38 µM [inhibitor, partial curve, poor fit].
For `COc1cc(NC(=O)Nn2cnnc2)cc(OC)c1OC`, the “activity change, negative = inhibition” value was inactive: 6.09%.
In the case of `CCCNC(=O)C(Cc1ccccc1)NC(=O)c1ccc(C(F)(F)F)cc1` (centres undefined), the Potency is reported as inconclusive: 13.1 µM [inhibitor, single point].
In the case of `COc1ccccc1N1CCN(CC(O)COc2ccc(C)cc2C)CC1` (centres undefined), the “activity change, negative = inhibition” value is reported as inactive: 45.3%.
For `O=C(Nc1ccc(S(=O)(=O)Nc2ccc(F)cc2)cc1)c1ccc(CN2CCOCC2)cc1`, the “activity change, negative = inhibition” value was inactive: 11.9%.
With `O=[N+]([O-])c1ccc(N2CCOCC2)cc1NC(c1ccccc1)c1ccccc1` the Potency was active: 2.08 µM.
For `CC1(OC(=O)CCc2ccccc2)C(=O)C=C2C=C(c3ccc(C#N)cc3)N(CCN3CCOCC3)C=C2C1=O` (centres undefined), the Potency was inconclusive: 0.928 µM [inhibitor, full curve].
For `COc1cccc(NC(=O)C2CCCCC2)c1`, the Potency was inconclusive: 11.7 µM [inhibitor, single point].
With `COc1ccc(CCNC(=O)CN2C(=O)NC3(CCOc4ccccc43)C2=O)cc1` (centres undefined) the “activity change, negative = inhibition” value was inactive: 21.7%.
With `COc1ccc(C(=O)C2CCCN(Cc3cccn3-c3ccc(Cl)cn3)C2)c(OC)c1` (centres undefined) the “activity change, negative = inhibition” value was inactive: 14.8%.
With `COc1ccc(CCNC(=O)Cc2ccsc2)cc1` the “activity change, negative = inhibition” value was inactive: -15.6%.
For `S=C(Nc1ccc2nsnc2c1)N1CCCCCC1`, the “activity change, negative = inhibition” value was inactive: 24.6%.
In the case of `O=C(N/N=C/c1c(Cl)cccc1Cl)c1ccccc1F`, the Potency is reported as inconclusive: 4.65 µM [inhibitor, partial curve, poor fit].
With `Oc1cccc(/C=N/Nc2ccc(Cl)nn2)c1O` the Potency was inconclusive: 0.147 µM [inhibitor, full curve, poor fit].
In the case of `O=C(CSc1ccc(-c2ccco2)nn1)c1ccccc1`, the Potency is reported as inconclusive: 13.1 µM [inhibitor, single point].
For `Cc1cc(OCC(=O)N2CCN(c3ccccn3)CC2)c(C)cc1Br`, the Potency was inconclusive: 11.7 µM [inhibitor, partial curve, poor fit].
